# Measurements taken from paper PMC8703873, “Structure and Activity of a Selective Antibiofilm Peptide SK-24 Derived from the NMR Structure of Human Cathelicidin LL-37” (Pharmaceuticals, 2021).
# Assay: Circular dichroism: helicity, R1 and R2 in PBS or SDS micelles
# Type: physicochemical
# Details: for Helicity: estimated from the 222 nm band
# [1] = 60 mM SDS micelles, 0.5 mM peptide, 10 mM PBS pH 7, 25 °C
# [2] = PBS: 0.5 mM peptide in 10 mM PBS, pH 7, 25 °C
smiles,measurement,setting,value
CC[C@H](C)[C@H](NC(=O)[C@H](CCCCN)NC(=O)[C@H](CCC(=O)O)NC(=O)[C@H](CCCCN)NC(=O)[C@H](CO)NC(=O)[C@H](CCCCN)NC(=O)[C@H](CCCNC(=N)N)NC(=O)[C@H](Cc1ccccc1)NC(=O)[C@H](Cc1ccccc1)NC(=O)[C@H](CC(=O)O)NC(=O)CNC(=O)[C@H](CC(C)C)NC(=O)[C@@H](N)CC(C)C)C(=O)NCC(=O)N[C@@H](CCCCN)C(=O)N[C@@H](CCC(=O)O)C(=O)N[C@@H](Cc1ccccc1)C(=O)N[C@@H](CCCCN)C(=O)N[C@@H](CCCNC(=N)N)C(=O)N[C@H](C(=O)N[C@H](C(=O)N[C@@H](CCC(N)=O)C(=O)N[C@@H](CCCNC(=N)N)C(=O)N[C@H](C(=O)N[C@@H](CCCCN)C(=O)N[C@@H](CC(=O)O)C(=O)N[C@@H](Cc1ccccc1)C(=O)N[C@@H](CC(C)C)C(=O)N[C@@H](CCCNC(=N)N)C(=O)N[C@@H](CC(N)=O)C(=O)N[C@@H](CC(C)C)C(=O)N[C@H](C(=O)N1CCC[C@H]1C(=O)N[C@@H](CCCNC(=N)N)C(=O)N[C@H](C(=O)N[C@@H](CCC(=O)O)C(=O)N[C@@H](CO)C(=O)O)[C@@H](C)O)C(C)C)[C@@H](C)CC)C(C)C)[C@@H](C)CC [LL-37],R1 (molar ellipticity ratio 192/208),[1],−2.08
same,Helicity,[1],97.2%
same,helix% in phosphate buffer,"PBS, 0.5 mM peptide",84%
same,R1 (molar ellipticity ratio 192/208),[2],−1.94
same,Helicity,[2],83.8%
